Assay results from patent US12522631B2, “Compounds for use in the treatment of liver disease” (The Provost, Fellows, Foundation Scholars, And The Other …, priority 2019, dated 2026).

Experiments:
HUH-7 cells = assay: MTT cell viability assay, HUH-7 cells treated with DCA; assay type: cell-based; conditions: 10 μM; 24 h before DCA 200 μM, then co-treated 24 h (FIG. 14b)
Description: The difference between the observed cell viability in each of the assays is a consequence of the different properties measured in each assay. The alamarBlue™ assay uses resazurin-based reagents that function as cell health indicators by using the reducing power of living cells to quantitatively measure viability. Upon entering living cells, resazurin is reduced to resorufin, a compound that is red in color and highly fluorescent. The MTT assay is a colorimetric assay for assessing cell metabolic activity. NAD(P)H-dependent cellular oxidoreductase enzymes may, under defined conditions, reflect the number of viable cells present.

HFD-F mice = assay: Mouse model of hepatic steatosis (HFD-F); assay type: in vivo, Male C57BL/6J strain mice
[1] = circulating transaminase activity (FIG. 13)
[2] = final 2 weeks of the 28 week experiment

Compound: C[C@H](CCC(=O)O)[C@H]1CC[C@H]2[C@@H]3[C@@H](NS(C)(=O)=O)C[C@@H]4C[C@H](O)CC[C@]4(C)[C@H]3CC[C@]12C [Compound 21, 3α-hydroxy-7β-(methanesulfonamido)-5β-cholanoate]
- cell viability (MTT) (HUH-7 cells): approximately 75%
- visceral fat as a percentage of body weight (HFD-F mice; 30 mg/kg intraperitoneally daily, last two weeks (FIG. 10a)): no reduction in visceral fat was observed
- overall body weight (HFD-F mice; 30 mg/kg intraperitoneally daily, last two weeks of 28 weeks HFD-F, data not shown): reduction in overall body weight compared with vehicle
- liver weight as a percentage of body weight (HFD-F mice; 30 mg/kg intraperitoneally daily, last two weeks, vs UDCA and vehicle (FIG. 10b)): significant reduction in liver weight
- steatosis in H&E liver sections (HFD-F mice; 14 d treatment, vs UDCA and vehicle (FIG. 11)): reduced evidence of steatosis and associated liver damage
- ALT (HFD-F mice; [1]): reduction in ALT
- AST:ALT ratio (HFD-F mice; [1]): reduction
- total NASH score (HFD-F mice; composite histopathological score (FIG. 12)): significant reduction in total NASH score
- circulating transaminases (HFD-F mice; [2]): significant reduction in circulating transaminases
- histopathologically evident steatohepatitis (HFD-F mice; [2]): significant reduction in histopathologically evident steatohepatitis
